Source: PubChem BioAssay AID1259405 (NCATS, 2018)
Purpose: 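Silenced genes that increase secreted GFP made by CHO cells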 (primary screen). Cells: Chinese hamster CHO-K1 ovary cells with stable secreted eGFP expression. Reagents: single siRNA against mouse genes, 0.8 pmol siRNA per well (2 µl of 400 nM stock). Timing: 3 days. Measured: 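Percent of the per-plate non-targeting control median for intracellular GFP per well by laser scanning cytometry and for cell viability by ATP luminescence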. Reading the numbers: GFP, % of control: higher = more GFP per well, higher productivity; viability (ATP), % of control: higher = more viable cells (more ATP). Hit rule: 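a knock-down is called active if GFP reaches 120% or more of non-targeting control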.
The whole screen tested about 50,000 reagents; below is a part drawn at random. About 4,000 of them (8%) count as active. 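Mouse siRNA library applied to hamster cells; one well for each siRNA.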 Entries without a mark were called inactive. Reagents against one gene are numbered here.

gene knocked down	reagent no.	GFP, % of control	viability (ATP), % of control
Mapkapk5	1	119	99.7
Mapkapk5	2	36.7	45.2
Mapkapk5	3	92.8	92.7
Ocel1	1	126 (active)	114
Ocel1	2	58.5	74
Ocel1	3	47.9	41
Rhox7a	1	120	105
Rhox7a	2	123 (active)	77.8
Rhox7a	3	65.9	49.8
2810032G03Rik	1	79.7	74
2810032G03Rik	2	125 (active)	63.7
2810032G03Rik	3	73.9	72.1
Glipr1	1	53.4	61.8
Glipr1	2	101	94.9
Glipr1	3	79.4	76
Ift74	1	87.6	84.7
Ift74	2	71.6	56.3
Ift74	3	117	120
Aspm	1	85.2	87
Aspm	2	63.1	85.1
Aspm	3	65.2	48
Smyd4	1	85.8	112
Smyd4	2	61.6	60.9
Smyd4	3	68.6	93.7
Abca8a	1	92.2	89.8
Abca8a	2	151 (active)	114
Abca8a	3	75.6	62.7
Krtap13-21	1	44	40.7
Krtap13-21	2	118	110
Krtap13-21	3	81.6	83.3
Ftmt	1	67	70
Ftmt	2	57	85.9
Ftmt	3	69.6	82
Sigmar1	1	32.5	67.6
Sigmar1	2	37	22.6
Lgsn	1	74	71.6
Lgsn	2	61.3	84.9
Lgsn	3	99.6	180
D130007C19Rik	1	105	90.9
D130007C19Rik	2	145 (active)	56.5
D130007C19Rik	3	87.5	115
Vmn2r43	1	60.5	55.3
Vmn2r43	2	91.7	90.2
Vmn2r43	3	51.6	79.2
6820408C15Rik	1	29.5	27.7
6820408C15Rik	2	73.1	84.4
6820408C15Rik	3	105	130
Cenph	1	61.2	82.1
Cenph	2	73	80.3
Cenph	3	87.8	86.9
Or6c208	1	39.8	41.9
Or6c208	2	126 (active)	95.7
Or6c208	3	91.7	98.5
Pdxp	1	131 (active)	72.2
Pdxp	2	49.3	47.6
Pdxp	3	58.2	34.6
Or1q1	1	102	68.5
Or1q1	2	88.8	81.2
Or1q1	3	57.3	74.9
Elob	1	80.3	87.4
Elob	2	90.5	68.8
Pdha1	1	62.1	91.3
Pdha1	2	52.5	91
Pdha1	3	96.9	121
Arid5a	1	33.3	46
Arid5a	2	53.5	64.4
Arid5a	3	61.8	70.8
Bco1	1	49.2	62.8
Bco1	2	69.6	67.9
Bco1	3	63.7	62.2
Snapin	1	50.3	117
Snapin	2	58.7	46.3
Pepf	1	83.8	91.1
Pepf	2	68	53.1
Pepf	3	88.9	79.8
Lipe	1	128 (active)	91.8
Lipe	2	43.9	65.7
Lipe	3	49.8	50.6
Syt8	1	101	54.9
Syt8	2	160 (active)	83.7
Syt8	3	110	54.8
Zan	1	71.6	62.7
Zan	2	64.5	36
Zan	3	92.2	88

Sorted by “GFP, % of control” (descending): 5 of the entries above
gene knocked down	reagent no.	GFP, % of control	viability (ATP), % of control
Abca8a	2	151 (active)	114
Krtap13-21	2	118	110
Abca8a	1	92.2	89.8
Abca8a	3	75.6	62.7
Krtap13-21	1	44	40.7
